The test concerns the target T1, TERF2IP (human (endogenous in HUVEC)) (UniProt Q9NYB0).
T1 sequence: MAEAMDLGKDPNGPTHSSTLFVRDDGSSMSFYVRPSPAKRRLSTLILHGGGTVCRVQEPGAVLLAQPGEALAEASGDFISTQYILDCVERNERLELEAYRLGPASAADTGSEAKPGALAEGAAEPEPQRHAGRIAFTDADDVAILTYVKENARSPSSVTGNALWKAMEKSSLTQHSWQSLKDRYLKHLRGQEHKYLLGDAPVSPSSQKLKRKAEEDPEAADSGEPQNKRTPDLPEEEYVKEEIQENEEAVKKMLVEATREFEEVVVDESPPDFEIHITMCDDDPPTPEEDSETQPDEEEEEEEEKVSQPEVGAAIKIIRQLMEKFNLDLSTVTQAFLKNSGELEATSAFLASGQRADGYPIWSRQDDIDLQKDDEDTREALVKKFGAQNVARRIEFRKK
As to the kind of experiment: co-IP.

Chains of the proteins cited; added tags and fusions are not shown.
UniProt Q04206: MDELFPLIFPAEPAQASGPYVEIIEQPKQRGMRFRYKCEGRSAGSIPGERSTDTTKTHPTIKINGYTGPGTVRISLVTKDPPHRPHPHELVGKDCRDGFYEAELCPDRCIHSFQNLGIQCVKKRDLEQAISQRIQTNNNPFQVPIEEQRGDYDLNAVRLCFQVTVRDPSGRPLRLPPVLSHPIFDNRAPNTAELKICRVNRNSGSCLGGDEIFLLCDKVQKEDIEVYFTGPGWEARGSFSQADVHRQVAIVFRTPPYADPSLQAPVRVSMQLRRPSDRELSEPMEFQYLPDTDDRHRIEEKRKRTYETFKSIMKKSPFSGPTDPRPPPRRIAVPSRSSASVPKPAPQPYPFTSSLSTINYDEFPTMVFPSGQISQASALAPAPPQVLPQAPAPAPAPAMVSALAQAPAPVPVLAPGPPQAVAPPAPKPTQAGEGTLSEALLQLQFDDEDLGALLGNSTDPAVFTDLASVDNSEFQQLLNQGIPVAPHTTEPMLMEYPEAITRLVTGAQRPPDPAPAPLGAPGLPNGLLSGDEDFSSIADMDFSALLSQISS

Results are given in words; binding and its absence hold for the method and conditions named. Binding seen in cells or lysates may run through a third protein. Some binding calls cover weakened binding; strength is not graded here.

Consider “p65 subunit of NF-κB (from UniProt Q04206 1-551)”, for which the binding result was “binds”.

(Values after paper doi:10.1101/2023.05.12.540614.)
